Experimental data: US10874644B2, “Therapeutic approaches for treating Alzheimer disease and related disorders through a modulation of synapse function” (Pharnext, priority 2008, dated 2020)
At least one structure is not confirmed: it was looked up by name or label, or the drawing left a doubt.

What was measured:
[1] = system: rat primary cortical neurons; experiment: LDH release in human Aβ1-42 toxicity on rat primary cortical cells; format: cell-based; settings: single drugs, Table 4, Aβ1-42 10 μM 24 h
Protocol: Primary rat cortical neurons are cultured as described previously. […] The control medium was prepared in the same conditions.
Cortical neurons were intoxicated for 24 hours. Three separate cultures were performed per condition, 6 wells per condition.
This colorimetric assay for the quantification of cell toxicity is based on the measurement of lactate dehydrogenase (LDH) activity released from the cytosol of dying cells into the supernatant.

[2] = system: Human Brain Microvascular Endothelial Cells (HBMEC); experiment: Capillary network length in Aβ1-42 intoxicated human brain microvascular endothelial cells; format: cell-based; settings: single drugs, Table 5; Aβ1-42 2.5 μM 18 h, total capillary network length

In the case of `NCC(CC(=O)O)c1ccc(Cl)cc1` (racemic) [Baclofen (+/−), Baclofen], the “Protective effect on Aβ1-42 toxicity in neuronal cells” value [1] is reported as “+” and the “Protective effect in Aβ1-42 intoxicated HBMEC cells” value [2] is reported as “+”.
